The target of one test is Flag-tagged TFAP2A (UniProt P05549). Description: co-IP; HEK293T cells cotransfected with Flag-TFAP2A and HA-HINT1 plasmids; immunoprecipitated by HA antibody (Figure 6J) or Flag antibody.
For another test, the target named is HA-tagged HINT1 (UniProt P49773). The test is described as above.
The next test concerns the target purified HINT1 protein (UniProt P49773). The test is described as follows: co-IP; in vitro binding assay of purified HINT1 and GST-TFAP2A protein; immunoprecipitated by HINT1 antibody; both purified.
Test [1] deals with histidine triad nucleotide-binding protein 1 (HINT1), endogenous in human aortic smooth muscle cells (human (endogenous in HASMCs)) (UniProt P49773). The test is described as follows: co-IP; endogenous proteins in HASMCs; immunoprecipitated by HINT1 antibody; cells with PBS or PDGF-BB stimulation for 4 hours, Ang II stimulation, or NUP98 knockdown by siRNA with PDGF-BB.

Amino acid sequences for entries named in this document (tags omitted).
UniProt P05549: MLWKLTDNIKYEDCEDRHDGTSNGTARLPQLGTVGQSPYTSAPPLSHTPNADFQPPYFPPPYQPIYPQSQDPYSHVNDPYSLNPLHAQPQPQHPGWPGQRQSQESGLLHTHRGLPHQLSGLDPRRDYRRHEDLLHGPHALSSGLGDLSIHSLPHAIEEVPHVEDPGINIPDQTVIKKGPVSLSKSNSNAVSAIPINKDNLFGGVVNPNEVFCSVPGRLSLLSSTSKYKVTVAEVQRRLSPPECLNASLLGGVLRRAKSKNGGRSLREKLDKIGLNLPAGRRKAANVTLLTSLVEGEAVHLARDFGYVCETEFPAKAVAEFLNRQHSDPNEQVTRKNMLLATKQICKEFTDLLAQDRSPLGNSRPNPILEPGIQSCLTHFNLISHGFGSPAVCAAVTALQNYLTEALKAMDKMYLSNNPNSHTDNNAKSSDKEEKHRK
UniProt P49773: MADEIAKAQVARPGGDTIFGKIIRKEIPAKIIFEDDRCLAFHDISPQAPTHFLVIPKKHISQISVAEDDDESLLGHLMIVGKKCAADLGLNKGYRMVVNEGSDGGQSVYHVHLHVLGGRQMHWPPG

These are yes or no findings as the source states them, for the method shown. For some of these results: In cells and extracts the contact can be indirect. Some results given as binding are weak or reduced against the parent protein; the word gives no strength.

Turning to “HA-tagged HINT1 (from UniProt P49773 1-126)”, in the test with Flag-tagged TFAP2A, the binding entry is on record as “binds”.
Take “Flag-tagged TFAP2A (from UniProt P05549 1-437)”: the binding entry with HA-tagged HINT1 is on record as “binds”.
Regarding “purified GST-TFAP2A protein (from UniProt P05549 1-437)”, the binding result with purified HINT1 protein was “binds”.
For the substance “transcription factor AP-2 α (TFAP2A), endogenous in human aortic smooth muscle cells (from UniProt P05549 1-437)”, the binding entry in test [1] was “binds”.

The values above are taken from paper PMC12126226.
